These results are taken from PubChem BioAssay AID2685 (National Center for Advancing Translational Sciences (NCATS), 2010).

A word on the AC50: it is the concentration giving half of the maximal activity seen. Higher therefore signals weaker potency.

This is one part of the list. Further columns of the screen follow, without active or inactive calls. The list favours compounds with an active or inconclusive main result. Words in brackets tell the shape of the fitted curve; partial curves, single points and poor fits give uncertain potencies.

The nature of this test: qHTS Assay for Lipid Storage Modulators in Drosophila S3 Cells.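 On cell number change: cells counted by Cell Tracker Red CMTPX staining in the red channel.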 The following applies: BODIPY lipid droplet fluorescence, 18-24 h; for cell number change: measured here: cell count max response, cells fed with added oleic acid. Put shortly:
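Drosophila S3 cells got compounds at several concentrations plus oleic acid (400 uM solution). Laser-scanning cytometry with 488 nm excitation read lipid droplets at 500-530 nm and cells at 575-640 nm. Percent activity was relative to 20 uM Triacsin C.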
A general note: qHTS replaces the single test concentration by a dilution series.

[1] abbreviates: measured here: lipid fluorescence (Fed channel) AC50, cells fed with added oleic acid.
The mark [2] stands for this setting: measured here: cell number channel AC50, cells fed with added oleic acid.

Take `Cc1cccc(N2CCN(CC(=O)N(C3CCCC3)C3CCS(=O)(=O)C3)CC2)c1C` (stereo not drawn): the cell number change is -33.2%. The AC50 under setting [1] is 0.259 µM [falling, full curve, poor fit].

Turning to `COc1ccc(CC(=O)Nc2cccc(-c3csc(C)n3)c2)cc1`, the cell number change is 23.5%.

In the case of `CC(=C1C(=O)c2ccccc2C1=O)N1CCN(C/C=C/c2ccccc2)CC1`, the AC50 under setting [1] was 16.4 µM [falling, single point].

Take `Cc1ccc(CNC(=O)CN2CCN(c3ccc(F)cc3)CC2)cc1`: the cell number change is -3.97%. Moreover, under setting [1], the AC50 is 29.1 µM [rising, single point].

As for `O=C(Nc1nnc(-c2ccc(F)cc2)o1)c1cc(Cl)sc1Cl`, the cell number change is -50%. For the same compound, the AC50 under setting [2] was 1.64 µM [falling, partial curve].

As for `CN(C)c1ccc(-c2noc(C3CCN(C(=O)Nc4ccc(Cl)cc4)CC3)n2)cc1`, the cell number change came out at 0.486%. For the same compound, the half-maximal activity concentration (AC50) under setting [1] was 0.461 µM [rising, full curve].

With `CC(OC(=O)c1cccc(-n2cnnn2)c1)C(=O)Nc1cccc(Cl)c1` (stereo not drawn), the cell number change is 113%. Moreover, under setting [2], the half-maximal activity concentration (AC50) was 6.51 µM [falling, single point]. Further, under setting [1], the AC50 was 6.51 µM [falling, single point].

Consider `COc1ccc(NS(=O)(=O)c2cccc3cccnc23)cc1Cl`, for which the cell number change was found to be 9.01%.

For `COCC(=O)NCc1nc2ccccc2n1Cc1ccccc1F`, the cell number change was determined as 1.21%. In addition, the concentration at half-maximal activity (AC50) under setting [1] was 9.2 µM [rising, partial curve, poor fit].

Consider `COc1ccc(-c2cn3nc(SCC(=O)NC4CCCCC4)ccc3n2)cc1`, for which the cell number change came to 16.6%. Further, under setting [2], the concentration at half-maximal activity (AC50) is 0.0326 µM [rising, full curve, poor fit].

With `COc1ccc(NS(=O)(=O)c2c(F)cccc2F)cc1S(=O)(=O)N1CCOCC1`, the cell number change turned out to be 3.85%. In addition, the concentration at half-maximal activity (AC50) under setting [1] is 0.58 µM [falling, single point].

Take `COc1cccc(NC(=O)N(CCN(C)C)C(C)c2cccnc2)c1` (stereo not drawn): the cell number change came out at 15.4%.

On to `CCn1c(=O)cc(OCC(=O)Nc2ccc(OC)c(OC)c2)c2ccccc21`, for which the cell number change is -4.33%. Under setting [1], the AC50 was 6.51 µM [falling, single point].

`Fc1ccc(Cn2c(SCc3ccc(F)c(C(F)(F)F)c3)nnc2C(F)(F)F)cc1`: the cell number change came to 22.4%. Under setting [1], the half-maximal activity concentration (AC50) was 25.9 µM [rising, single point].

Regarding `Cc1cc(N/N=C/c2ccc(N(C)C)cc2)nc(NCc2ccccc2)n1`, the cell number change stood at 11.8%.

Take `CC(=O)c1c(C(C)=O)c(C)n(-c2nc(-c3ccc(C)c(C)c3)c(C)s2)c1C`: the AC50 is, setting by setting: under setting [2], 1.46 µM [rising, partial curve]; under setting [1], 0.58 µM [rising, single point].

As to `CCOC(=O)C(NC(=O)Nc1ccc(F)cc1F)(Oc1ccccc1)C(F)(F)F` (stereo not drawn), the cell number change was found to be 7.8%.

`CN(C(=O)CSc1nnc(-c2ccncc2)n1Cc1ccccc1)C1CCS(=O)(=O)C1` (stereo not drawn): the cell number change was -5.01%.

As to `O=C(NC1CCCC1)c1cc(-c2ccc(Cl)c(Cl)c2)on1`, the cell number change worked out at 16.7%.

As for `COc1ccc(-c2c(C)n([O-])c(C)c(C)[n+]2=O)cc1OC`, the cell number change is -18.3%. The concentration at half-maximal activity (AC50) under setting [1] was 18.4 µM [rising, single point].

`C=CCn1c(-c2ccc3ncccc3c2)n[nH]c1=S`: the cell number change amounted to 23.3%. Also, the AC50 under setting [2] is 2.06 µM [rising, full curve, poor fit]. Besides, under setting [1], the AC50 was 3.26 µM [rising, partial curve].

Take `O=C(Nc1c(C(=O)N2CCOCC2)oc2ccccc12)c1cccc([N+](=O)[O-])c1`: the cell number change is -11.3%. Also, under setting [2], the concentration at half-maximal activity (AC50) was 0.291 µM [rising, partial curve, poor fit].

For `Cc1[nH]c(=O)[nH]c(=O)c1S(=O)(=O)Nc1ccc(F)c([N+](=O)[O-])c1`, the cell number change is 15.6%. In addition, the AC50 under setting [1] was 29.1 µM [rising, single point].

For `COc1ccc(C(=O)c2cn[nH]c2-c2cc(Cl)ccc2O)cc1`, the cell number change is -2.8%. The AC50 under setting [1] is 18.4 µM [rising, single point].

`COC(=O)CSc1n[nH]c(-c2cccnc2)n1`: the cell number change was -28%. The AC50 under setting [2] was 2.31 µM [falling, full curve, poor fit].

For the compound `COc1ccc(CNC(=O)CN(C(=O)c2snc(C(N)=O)c2N)c2ccccc2F)cc1`, the cell number change is 17.3%. The half-maximal activity concentration (AC50) under setting [1] is 6.51 µM [rising, single point].

For the compound `CCOc1ccccc1NC(=O)COC(=O)Cc1ccsc1`, the cell number change was -10.3%. Further, the AC50 under setting [1] is 29.1 µM [rising, single point].

Turning to `Cc1sc2ncn(CC(=O)NCCCC(=O)NCc3ccc(F)cc3)c(=O)c2c1C`, the cell number change is 5%.

On to `O=C(CCCCCNC(=O)c1ccccc1)C[N+](=O)[O-]`, for which the half-maximal activity concentration (AC50) under setting [1] is 0.00461 µM [falling, full curve, poor fit].

Turning to `O=c1[nH]c(=S)[nH]nc1Cc1ccccc1`, the cell number change is 54.1%. Besides, the AC50 under setting [2] was 20.6 µM [rising, partial curve]. Besides, the half-maximal activity concentration (AC50) under setting [1] is 29.1 µM [rising, single point].

As to `CCOC(=O)c1ccc(NC(=O)c2cccc(S(=O)(=O)N3c4ccccc4CC3C)c2)s1` (stereo not drawn), the cell number change is -65.2%. The concentration at half-maximal activity (AC50) under setting [2] was 20.6 µM [falling, partial curve]. The AC50 under setting [1] is 4.61 µM [falling, full curve].

Take `Cc1ccsc1C(=O)OCC(=O)c1ccc(OC(F)F)cc1`: the cell number change was -31.6%. Also, the AC50 under setting [2] is 4.61 µM [falling, full curve, poor fit]. Also, under setting [1], the half-maximal activity concentration (AC50) is 4.11 µM [falling, full curve, poor fit].

For `CCCN(CCC)S(=O)(=O)c1ccc(N2CCCC2=O)c([N+](=O)[O-])c1`, the cell number change was 13.1%.

Take `CCOc1cc(C(=S)N2CCOCC2)cc(Br)c1OS(=O)(=O)c1ccccc1`: the cell number change is -0.493%. Moreover, the AC50 under setting [1] is 23.1 µM [falling, single point].

With `CCc1ccccc1N(CC)C(=O)c1cn(C)c(=O)c2cc(OC)c(OC)cc12`, the cell number change stood at 82.3%. The AC50 under setting [2] was 11.6 µM [rising, partial curve]. In addition, under setting [1], the AC50 is 4.11 µM [rising, single point].

Take `CCC(Oc1ccccc1)C(=O)OCC(=O)N(CC)c1c(N)n(Cc2ccccc2)c(=O)[nH]c1=O` (stereo not drawn): the cell number change is -5.56%. For the same compound, under setting [1], the AC50 was 3.26 µM [rising, single point].

For the compound `O=C1c2ccccc2C(=O)C12OC2c1ccc(Cl)cc1Cl` (stereo not drawn), the cell number change was -30.6%. In addition, under setting [2], the AC50 was 29.1 µM [falling, single point]. The half-maximal activity concentration (AC50) under setting [1] is 0.58 µM [falling, full curve].

Turning to `Cc1ccc(/C=C/c2ccc(=O)n(Cc3ccccc3Cl)n2)cc1`, the cell number change is -143%. Further, the concentration at half-maximal activity (AC50) under setting [2] was 2.59 µM [rising, single point].

In the case of `CCOC(=O)c1[nH]cnc1C(=O)Nc1ccc([N+](=O)[O-])cc1`, the cell number change was found to be 2.78%.
